Reference: publication PMC10511717
Results are given in words; binding and its absence hold for the method and conditions named. Some entries that bind do so weakly or less than the wild type.

Biological target: T1, human recombinant RANKL (human) (UniProt O14788)
T1 sequence: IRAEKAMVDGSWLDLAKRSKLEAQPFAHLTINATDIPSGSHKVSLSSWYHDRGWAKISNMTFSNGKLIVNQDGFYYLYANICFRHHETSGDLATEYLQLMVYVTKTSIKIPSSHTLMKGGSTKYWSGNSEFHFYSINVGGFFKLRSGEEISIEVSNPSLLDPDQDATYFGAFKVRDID
Assay: ELISA; solid phase binding assay: RANKL bound for 2 h to nickel-coated wells, OMD added overnight at 4 °C, bound OMD detected with biotinylated goat anti-human OMD and streptavidin-POD, read at 450 nm; OMD series on 0.2 μg/mL RANKL, and RANKL series (800 to 6.25 ng/mL) with 0.5 μg/mL OMD; negative controls without RANKL or without OMD; both purified

binding: binds
B1: human recombinant osteomodulin (OMD) (protein, UniProt Q99983 21-421)
chain: QYETYQWDEDYDQEPDDDYQTGFPFRQNVDYGVPFHQYTLGCVSECFCPTNFPSSMYCDNRKLKTIPNIPMHIQQLYLQFNEIEAVTANSFINATHLKEINLSHNKIKSQKIDYGVFAKLPNLLQLHLEHNNLEEFPFPLPKSLERLLLGYNEISKLQTNAMDGLVNLTMLDLCYNYLHDSLLKDKIFAKMEKLMQLNLCSNRLESMPPGLPSSLMYLSLENNSISSIPEKYFDKLPKLHTLRMSHNKLQDIPYNIFNLPNIVELSVGHNKLKQAFYIPRNLEHLYLQNNEIEKMNLTVMCPSIDPLHYHHLTYIRVDQNKLKEPISSYIFFCFPHIHTIYYGEQRSTNGQTIQLKTQVFRRFPDDDDESEDHDDPDNAHESPEQEGAEGHFDLHYYENQE
